One compound from patent publication US11376257B2, “Generation of muscle lineage cells and therapeutic uses thereof” (GENEA BIOCELLS USA (HOLDINGS), INC., priority 2016, dated 2022) can be followed below.

For the data set, the system named is stem cell-derived myoblasts. Here is the method: For screening, frozen satellite-like cells, prepared as described in Example 1, were thawed in a water bath at 37° C., resuspended in 3 mL of warm Myoblast Medium (Genea Biocells) and centrifuged at 400×g for 4 min. The supernatant was removed and the cell pellet was resuspended in 1 mL of medium for cell count. Cells were seeded at a density of 5,000 cells/cm^2 in collagen I-coated plastic flasks (Biocoat, BD Bioscience) and incubated at 5% CO2, 37° C. Every other day the culture medium was exchanged until cells reached a confluency of 80%, then cells were trypsinized, counted and seeded in collagen-coated 96-well plate (Biocoat) at density of 30,000 cells/cm^2 in Myoblast Medium using an automated liquid handling system (Fluent, Tecan Trading AG, Switzerland). Cells were incubated at 5% CO2, 37° C. and the medium was changed every other day until cells reached a confluence of 80%. The medium was exchanged for Myotube Medium (Genea Biocells) containing the test compounds. No further media changes were performed. In general, 3 to 6 concentrations were tested ranging from 3 μM to 1 nM; one plate per dilution was used. Media and DMSO control wells were placed randomly. No media changes were performed at this stage. […]

The structures appear in SMILES notation.

`CN1[C@@H]2CC[C@H]1C[C@@H](OC(=O)C(CO)c1ccccc1)C2` (stereo partly shown) [atropine]: the toxicity result is given as “toxic”.
